Results on one compound are retold here after patent publication US20120128593A1, “USE OF A MAGNETIC RESONANCE IMAGING MEDIUM COMPRISING HYPERPOLARIZED 13C PYRUVATE FOR THE DETECTION OF INFLAMMATION OR INFECTION” (priority 2010, published 2012).

This data set deals with arthritic joints. The experiment in a line: 13C MRS (FID CSI, 1D EPSI) of arthritic and normal joints after injection of hyperpolarized 13C-pyruvate. Type of data set: in vivo, Sprague Dawley rats. Particulars: for ratio of metabolite at the joint to total 13C: lactate / ratio of metabolite at the joint to total 13C: pyruvate: ROI analysis, FID CSI 20 sec after injection. The protocol:
Arthritis was induced in six juvenile Sprague Dawley rats (age 4-5 weeks, mean weight 114 grams) with injection of 0.4 μL/g complete Freund's adjuvant (3 rats at the right knee and 3 rats at the right ankle). Arthritic joints were imaged 7 days after induction with ^13C MRS on a GE 3 T scanner equipped with self-shielded gradients (40 mT/m, 150 mT/m/ms) and a custom-built dual-tuned (^1H/^13C) quadrature coil (Ø=80 mm) for both excitation and signal reception. 0.5 mL of a 100 mM solution of ^13C-1-pyruvate was hyperpolarized by DNP (15-20% liquid state polarization) and injected via the tail vein. Single-time point MRS analysis of 13C-1 pyruvate and its metabolites was obtained 20 sec after injection with a FID CSI sequence (voxel=2.5×2.5×10 mm, FOV=4×4 cm). Time resolved imaging was obtained with a 1D EPSI sequence during a second hyperpolarized ^13C-pyruvate injection. Mean signal intensities of pyruvate and lactate were obtained with ROI analysis at the joints and normal and arthritic joints were compared with the T-test.

As to `CC(=O)C(=O)O` [[1-^13C]pyruvate, ^13C1-pyruvate], the “ratio of metabolite at the joint to total 13C: lactate” value stood at 0.21 (arthritic joint, p<0.12 vs normal) and 0.16 (normal joint). Moreover, the “ratio of metabolite at the joint to total 13C: pyruvate” value came out at 0.34 (arthritic joint, p<0.17 vs normal) and 28 (normal joint). Moreover, the “ratio of lactate to total 13C” value by setting is: (arthritic joint, p<0.03 vs normal) 0.62; (normal joint) 0.56. Further, the “rate of conversion to lactate” value (arthritic joints vs normal, time resolved imaging (FIG. 2)) is given as “increased”. Also, under “arthritic paw vs normal paw, 20 sec after injection (FIG. 1)”, the “lactate production in metabolic maps” value is given as “increased lactate production”.
